# PubChem BioAssay AID540256 (National Center for Advancing Translational Sciences (NCATS), 2011)
# “And” between values parts separate entries of the source, which are not always exact repeats. Equal entries are not always repeated. Hit rate of the full screen: of about 300,000 compounds, about 3,700 (1.2%) were called active. The inconclusive results got no clear call from the source; some entries with a clear call stand among them for comparison. Calls come from the whole dose curve; tested in HEK293 cells. Potencies beside an inconclusive call are fits to weak or partial responses and may not hold up.
# Assay: qHTS for Inhibitors of binding or entry into cells for Lassa Virus; note: nearly all actives have a fitted effect of over 50% in size
# Settings: Lassa virus pseudotype entry inhibition, cell reporter; activity change, negative = inhibition: at 37.9 µM (top of the series) unless noted
# % is set by controls: 0 for no effect and ±100 for the full control effect; potency is the fitted concentration of half-maximal effect.
SMILES,Potency,"activity change, negative = inhibition"
O=C(O)Cn1nc(-c2ccc(Cl)cc2)ccc1=O,"inconclusive: 14.1 µM [activator, partial curve, poor fit]",
Cc1ccc(-c2nc(NCCN(C)C)c3ccccc3n2)cc1,"inconclusive: 2.51 µM [inhibitor, partial curve, poor fit]",
O=C(CCC1CCCCC1)Nc1cc(Cl)ccc1N1CCOCC1,"inconclusive: 0.708 µM [inhibitor, single point]",
Cc1ccc(N/N=C/c2c(O)n(-c3ccccc3)c(=O)[nH]c2=O)cc1,"inconclusive: 7.08 µM [inhibitor, partial curve, poor fit]",
Cc1cc(C(C)(C)C)cc(C)c1CCNC(=O)c1ccc[n+]([O-])c1,active: 3.16 µM,
Cc1cccc(Oc2nc3c(c(=O)n(C)c(=O)n3C)n2C)c1C,,inactive: 28% [at 46.1 µM]
COc1ccc(NC(=O)c2c(C)oc3ccc(O)c(CN4CCCC(C)C4)c23)cc1 (configuration not stated),,inactive: -14.4% [at 46.1 µM]
COc1ccc(NC(=O)c2oc3ccccc3c2NC(=O)c2cc(OC)c(OC)c(OC)c2)cc1,"inconclusive: 31.6 µM [activator, single point]",
CCOc1ccc(C(CCc2ccccc2)NC(=O)c2ccccc2F)cc1OCC (configuration not stated),"inconclusive: 18.3 µM [inhibitor, single point]",
COc1ccc(CCNC(=O)CN2C(=O)COc3ccccc32)cc1OC,"inconclusive: 7.94 µM [inhibitor, partial curve, poor fit]",
Cc1cc(S(=O)(=O)NCc2ccccc2)ccc1OCC(=O)Nc1cccc([N+](=O)[O-])c1,"inconclusive: 20.6 µM [inhibitor, single point]",
O=C(Nc1ccnn1C1CCN(C2CCC2)CC1)c1ccccc1,,inactive: 9.14%
CCOc1ccc(Nc2nc(Nc3ccc(O)cc3)nc(C)c2[N+](=O)[O-])cc1,"inconclusive: 2.24 µM [inhibitor, full curve]",
COc1ccc(NC(=O)CN2CCc3ccccc3C2)cc1S(=O)(=O)N1CCOCC1,"inconclusive: 3.16 µM [activator, single point]",
O=C(NCCCO)/C(=C/c1ccco1)NC(=O)c1ccc(Br)o1,,inactive: 1.36%
Cc1cc(N2CCN(c3ccccc3)CC2)nc(-c2ccccc2)n1,"inconclusive: 1.26 µM [activator, single point]",
CCN(CC)C(=O)CN1CCN(Cc2ccc3c(c2)OCO3)CC1,,inactive: -0.0377%
O=C(/C=C/c1ccccc1)NC(=S)Nc1cccnc1,,inactive: -2.63%
CCC(C)NC(=S)N(CCc1ccccc1)Cc1cc2cc(OC)c(OC)cc2[nH]c1=O (configuration not stated),"inconclusive: 16.4 µM [inhibitor, partial curve, poor fit]",
C/C(=N/NS(=O)(=O)c1ccccc1)c1c[nH]c2ccccc12,,inactive: 27.2% [at 46.1 µM]
CN(C)c1ccc(C=C(c2nnnn2-c2ccccc2)c2nnnn2-c2ccccc2)cc1,"inconclusive: 5.01 µM [inhibitor, full curve, poor fit]",
C1=CCC(CN2CCN(C3CCCCCC3)CC2)CC1 (configuration not stated),"inconclusive: 22.4 µM [inhibitor, single point]",
CCc1ccc(OCCCN=C(C)c2c(O)n(C)c(=O)n(C)c2=O)cc1,"inconclusive: 7.08 µM [inhibitor, full curve, poor fit]",

SMILES,Potency,"activity change, negative = inhibition"
CCn1c(COc2ccccc2C)nnc1SCC(=O)N1CCN(c2ccccc2)CC1,,inactive: -28.6%
COCCn1c(SCCCC(=O)c2ccc(Br)cc2)nnc1-c1ccncc1,"inconclusive: 35.5 µM [inhibitor, single point]",
O=C(NC(=S)NCc1cccnc1)c1cc(Br)ccc1Cl,"inconclusive: 28.2 µM [inhibitor, single point]",
O=C(OCc1ccc(F)cc1Cl)c1ccccn1,,inactive: 3.97%
Cc1cc(C)c(OCC(=O)Nc2cccc(-c3nc4ncccc4o3)c2)c(Br)c1,"inconclusive: 10 µM [inhibitor, partial curve]",
COc1cc(NS(=O)(=O)c2cccs2)cc(OC)c1,"inconclusive: 5.62 µM [activator, full curve, poor fit]",
CN(CC(=O)Nc1ccc(S(=O)(=O)N2CCCC2)cc1)CC(=O)Nc1ccc(F)c(F)c1F,,inactive: -26.5%
Cc1ccc(C2=NN(C(=O)COc3ncnc4ccccc34)C(c3ccco3)C2)cc1 (configuration not stated),"inconclusive: 4.47 µM [inhibitor, full curve, poor fit]",
COc1ccc(CNC(=O)C(C)OC(=O)c2cccn2C)cc1 (configuration not stated),"inconclusive: 3.66 µM [inhibitor, partial curve, poor fit]",
CCOC(=O)N1CCN(C2=C(NS(=O)(=O)c3ccccc3)C(=O)c3ccccc3C2=O)CC1,"inconclusive: 10 µM [inhibitor, partial curve, poor fit]",
CC(NC(=O)C1CCCN1S(=O)(=O)c1ccc2c(c1)n(C)c(=O)c(=O)n2C)c1ccccc1 (configuration not stated),"inconclusive: 35.5 µM [activator, single point]",
COc1ccc(CNC(=O)CCC(=O)Nc2nnc(CC(C)C)s2)cc1,"inconclusive: 6.31 µM [inhibitor, single point]",
COc1ccccc1OCC(=O)Nc1cc(-c2ccc(C)cc2)no1,,inactive: 23.2% [at 46.1 µM]
Cc1ccc(C(=O)N/N=C/c2ccc(OC(=O)c3ccccc3Cl)cc2)cn1,"inconclusive: 1.26 µM [inhibitor, single point]",
COc1cnc(-c2ccccn2)nc1Oc1ccc(Cl)cc1,,inactive: -10.4%
CC1CN(C(=O)c2cc(S(=O)(=O)N(C)c3ccc(F)cc3)ccc2Cl)CC(C)O1 (configuration not stated),"inconclusive: 1.58 µM [inhibitor, partial curve, poor fit]",
CCN(CC(=O)NC1CCS(=O)(=O)C1)S(=O)(=O)c1ccc(F)cc1 (configuration not stated),"inconclusive: 3.16 µM [activator, single point]",
N#C/C(=C\c1ccc[nH]1)C(=O)NC1CC1,,inactive: 10.2%
CC1CCN(S(=O)(=O)c2ccc3nc(N4CCN(c5ccccc5)CC4)ccc3c2)CC1,,inactive: 23.4% [at 46.1 µM]
COc1cccc2cc(C(=O)NC(C)C3CCCO3)c(=O)oc12 (configuration not stated),"inconclusive: 18.3 µM [activator, partial curve, poor fit]",
CCn1c(SCC(=O)O)nnc1-c1ccccc1,,inactive: -34.1%
O=C(NC(=S)NC1CCSC1=O)c1cccs1 (configuration not stated),,inactive: 15.7%
O=C(NNC(=O)c1cc(-c2ccc(Cl)cc2)nc2ccccc12)c1csc(N2CCOCC2)n1,"inconclusive: 10 µM [inhibitor, partial curve, poor fit]",

# Random excerpt: two compounds from above.
SMILES,Potency,"activity change, negative = inhibition"
CCn1c(SCC(=O)O)nnc1-c1ccccc1,,inactive: -34.1%
CCOC(=O)N1CCN(C2=C(NS(=O)(=O)c3ccccc3)C(=O)c3ccccc3C2=O)CC1,"inconclusive: 10 µM [inhibitor, partial curve, poor fit]",

# (continued)

SMILES,Potency,"activity change, negative = inhibition"
O=C(COC(=O)c1ccc(S(=O)(=O)N2CCCC2)cc1)NCc1ccc(Cl)cc1,"inconclusive: 0.231 µM [activator, single point]",
Cc1ccc(Cn2c(N/N=C/c3ccncc3)nc3c2c(=O)n(C)c(=O)n3C)cc1,"inconclusive: 1.12 µM [inhibitor, partial curve, poor fit]",
CC(=O)c1cccc(NC(=O)c2ccc(-c3ccccc3[N+](=O)[O-])o2)c1,"inconclusive: 8.2 µM [inhibitor, partial curve, poor fit]",
Cc1c(OCc2ccccc2)cccc1OCc1ccccc1,,inactive: -3.27%
CCCCN(C(=O)CSc1nnc(-c2ccc(OC)cc2)n1CC)c1c(N)n(Cc2ccccc2)c(=O)[nH]c1=O,"inactive and inconclusive: 11.2 µM [inhibitor, partial curve, poor fit]",
COc1ccc2oc(=O)c(-c3nc4ccccc4o3)cc2c1,"inconclusive: 1.83 µM [activator, partial curve, poor fit]",
CCN(CC)c1ccc(NC(=O)c2sc3nc(-c4ccccc4)cn3c2C)cc1,"inconclusive: 25.1 µM [inhibitor, single point]",
COc1cccc(CN(C)C(=O)/C=C/c2ccc(S(=O)(=O)N3CCCCCC3)cc2)c1,"inconclusive: 22.4 µM [inhibitor, single point]",
CCCOC(=O)C1=C(C)NC2=C(C(=O)CCC2)C1c1cccs1 (configuration not stated),"inconclusive: 1.3 µM [activator, partial curve, poor fit]",
Cc1ccc(S(=O)(=O)N2CCCc3cc(NC(=O)c4ccc(C(C)(C)C)cc4)ccc32)cc1,,inactive: 3.51% [at 46.1 µM]
Cc1nc(SCC(=O)c2ccc(F)cc2)n[nH]1,,inactive: 13.7%
Cc1ccc(CSc2ncccc2C(=O)O)cc1,"inconclusive: 16.4 µM [activator, single point] and inconclusive: 25.1 µM [activator, single point]",
CC(=O)c1cnc2nc(SCc3ccc(C)cc3)nn2c1C,"inconclusive: 3.16 µM [inhibitor, full curve]",
Cn1c(=O)n(C)c2cc([N+](=O)[O-])c(N3CCN(C(=O)c4ccc(F)cc4)CC3)cc21,"inconclusive: 18.3 µM [inhibitor, single point]",
COc1ccc(Cl)cc1NC(=O)CCNC(=O)Cn1ccc2ccccc2c1=O,,inactive: 13.6%
CCOC(=O)c1ccccc1NC(=O)c1sc2ncn(CC)c(=O)c2c1C,,inactive: -15.2% [at 46.1 µM]
O=C(C1CCN(c2ncnc3c2nc2n3CCCCC2)CC1)N1CCN(c2ccccc2)CC1,,inactive: -4.77% [at 46.1 µM]
Cc1ccc(S(=O)(=O)Nc2cc3c(C(=O)OCc4ccccc4)c(C)oc3c3ccccc23)cc1,"inconclusive: 4.47 µM [inhibitor, partial curve, poor fit]",
COc1ccc(C(=O)COc2ccc(C)cc2NC(C)=O)cc1,"inconclusive: 3.55 µM [activator, partial curve, poor fit]",
CN1CCN(CCCc2c3c(cc4c2CCC4)CCC3)CC1,"inconclusive: 29.1 µM [inhibitor, single point]",
Cc1ccc(C)c(NC(=O)Cn2c(=O)n(Cc3ccco3)c(=O)c3ccc(C(=O)NC4CCCC4)cc32)c1,,inactive: 24.5% [at 46.1 µM]
